The record followed here is article PMC6445466.

Sequences of proteins named here, by UniProt entry; tags and fusion partners are left off. A change or cut given only in a name is not applied to a line headed by its entry.
UniProt O50835: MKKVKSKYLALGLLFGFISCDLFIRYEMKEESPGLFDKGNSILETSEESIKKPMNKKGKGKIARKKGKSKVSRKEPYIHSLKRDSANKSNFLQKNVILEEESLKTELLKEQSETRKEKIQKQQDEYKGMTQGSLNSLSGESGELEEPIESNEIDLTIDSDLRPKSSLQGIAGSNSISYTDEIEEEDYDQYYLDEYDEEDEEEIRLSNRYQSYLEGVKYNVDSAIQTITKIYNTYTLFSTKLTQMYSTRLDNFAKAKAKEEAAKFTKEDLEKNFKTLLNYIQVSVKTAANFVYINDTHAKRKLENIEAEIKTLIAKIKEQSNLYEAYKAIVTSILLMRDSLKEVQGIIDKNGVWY

In the experiment the target is T1, human C1r, full-length enzyme (human) (UniProt P00736).
T1 sequence: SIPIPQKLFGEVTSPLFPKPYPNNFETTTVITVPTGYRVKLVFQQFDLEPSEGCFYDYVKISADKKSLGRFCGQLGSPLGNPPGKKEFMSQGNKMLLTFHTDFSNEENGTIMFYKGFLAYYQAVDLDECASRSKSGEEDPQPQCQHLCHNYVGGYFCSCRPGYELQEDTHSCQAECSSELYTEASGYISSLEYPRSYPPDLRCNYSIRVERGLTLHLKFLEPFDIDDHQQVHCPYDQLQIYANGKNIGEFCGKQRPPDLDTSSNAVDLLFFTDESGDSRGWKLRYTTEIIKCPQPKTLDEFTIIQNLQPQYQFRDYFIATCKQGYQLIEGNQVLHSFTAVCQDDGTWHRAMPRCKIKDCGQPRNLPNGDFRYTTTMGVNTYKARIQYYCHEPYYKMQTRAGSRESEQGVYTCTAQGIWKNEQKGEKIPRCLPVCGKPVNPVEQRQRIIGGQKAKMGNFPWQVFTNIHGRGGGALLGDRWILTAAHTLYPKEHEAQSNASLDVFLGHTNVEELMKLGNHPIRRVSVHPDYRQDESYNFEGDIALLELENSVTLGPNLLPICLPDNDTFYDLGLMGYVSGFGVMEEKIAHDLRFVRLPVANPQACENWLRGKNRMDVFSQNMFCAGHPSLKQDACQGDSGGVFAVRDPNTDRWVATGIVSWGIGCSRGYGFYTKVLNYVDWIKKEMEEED
The experiment can be described thus: whole-cell adherence assay; 1 ug human C1r (or BSA) coated on poly-D-lysine coverslips; intact B314 spirochetes expressing the lipoprotein applied for 2 hr at 32 °C, washed, scored by dark field microscopy; only the target purified.

These are yes or no findings as the source states them, for the method shown. Binding calls can cover weak binding; strength is not graded here.

With “BBK32, full-length lipoprotein expressed in B. burgdorferi strain B314 (B314/pCD100) (from UniProt O50835)”, the binding result was “binds”.
